# Reference: the supplement of paper PMC4604168 (melanoma cell lines)
# The list shows a part of the results. Single values are uncertain, as repeats are few or missing.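 Imaging used 1,536-well plates; nuclei positive for cleaved PARP by antibody were divided by total DNA-stained nuclei to yield the apoptosis fraction. Doses for screening kept most cells viable, and cell lines differ markedly in resting and induced cleaved-PARP levels.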
# Tests used:
# Assay in all cases: cleaved PARP positive nuclei fraction relative to DMSO control; melanoma cells; higher = more apoptosis
# Conditions in all cases: library dose: low library concentration; 72 h
# MZ2-MEL = tested on: MZ2-MEL
# MeWo = tested on: MeWo
# RPMI7951 = tested on: RPMI7951
# RVH-421 = tested on: RVH-421
# SkMel28 = tested on: SkMel28
# SkMel2 = tested on: SkMel2
# SkMel30 = tested on: SkMel30
# UACC62 = tested on: UACC62
# WM115 = tested on: WM115
# WM1716 = tested on: WM1716
# WM1745 = tested on: WM1745
# WM3526 = tested on: WM3526
# WM3619 = tested on: WM3619
# WM451Lu = tested on: WM451Lu
SMILES,cleaved PARP positive nuclei fraction (MZ2-MEL) [%],cleaved PARP positive nuclei fraction (MeWo) [%],cleaved PARP positive nuclei fraction (RPMI7951) [%],cleaved PARP positive nuclei fraction (RVH-421) [%],cleaved PARP positive nuclei fraction (SkMel28) [%],cleaved PARP positive nuclei fraction (SkMel2) [%],cleaved PARP positive nuclei fraction (SkMel30) [%],cleaved PARP positive nuclei fraction (UACC62) [%],cleaved PARP positive nuclei fraction (WM115) [%],cleaved PARP positive nuclei fraction (WM1716) [%],cleaved PARP positive nuclei fraction (WM1745) [%],cleaved PARP positive nuclei fraction (WM3526) [%],cleaved PARP positive nuclei fraction (WM3619) [%],cleaved PARP positive nuclei fraction (WM451Lu) [%]
"Nc1ncn([C@H]2C[C@H](O)[C@@H](CO)O2)c(=O)n1 [decitabine] + C=CCNC1=C2C[C@@H](C)C[C@H](OC)[C@H](O)[C@@H](C)/C=C(\C)[C@H](OC(N)=O)[C@@H](OC)/C=C\C=C(/C)C(=O)NC(=CC1=O)C2=O [Tanespimycin] (first compound 0.1 µM, partner dose 0.002 µM)",154,577,121,182,89.2,69.5,106,88.4,27.4,937,104,48.5,88.5,322
"C=C(c1ccc(C(=O)O)cc1)c1cc2c(cc1C)C(C)(C)CCC2(C)C [Bexarotene] + Cc1nc(Nc2ncc(C(=O)Nc3c(C)cccc3Cl)s2)cc(N2CCN(CCO)CC2)n1 [dasatanib] (first compound 2 µM, partner dose 0.004 µM)",141,111,96.4,171,134,97.3,49.3,130,77.8,177,132,50.2,110,107
"Cc1cc(Nc2cc(N3CCN(C)CC3)nc(/C=C/c3ccccc3)n2)n[nH]1 + Cn1nnc2c(C(N)=O)ncn2c1=O [temozolomide] (first compound 0.04 µM, partner dose 2 µM)",73.1,183,193,169,105,78.4,397,75.5,145,264,96.6,71.8,240,132
"CCCS(=O)(=O)Nc1ccc(F)c(C(=O)c2c[nH]c3ncc(Cl)cc23)c1F + COc1ccc(Cl)c(Nc2nc3ccccc3nc2NS(=O)(=O)c2cccc(NC(=O)C(C)(C)N)c2)c1 [XL147] (first compound 0.08 µM, partner dose 0.8 µM)",50.4,122,161,74.5,113,101,67.8,401,180,31.9,103,42.5,126,45.2
"Cc1cc(Nc2cc(N3CCN(C)CC3)nc(/C=C/c3ccccc3)n2)n[nH]1 + CC(C)C[C@H](NC(=O)[C@H](Cc1ccccc1)NC(=O)c1cnccn1)B(O)O [Bortezomib] (first compound 0.04 µM, partner dose 0.001 µM)",80.8,127,184,50.8,167,48.2,17.1,103,122,66,117,81.5,165,96.2
"C=C(c1ccc(C(=O)O)cc1)c1cc2c(cc1C)C(C)(C)CCC2(C)C [Bexarotene] + OCc1c[nH]c2ccccc12 [Indole-3-carbinol] (first compound 2 µM, partner dose 0.8 µM)",94.6,72,191,110,386,91.2,43.8,131,51.9,91,86.8,173,95.3,60.9
"CCCS(=O)(=O)Nc1ccc(F)c(C(=O)c2c[nH]c3ncc(Cl)cc23)c1F + C#Cc1cccc(Nc2ncnc3cc(OCCOC)c(OCCOC)cc23)c1 [erlotinib] (first compound 0.08 µM, partner dose 0.8 µM)",90.1,40.1,89,63.8,79.4,79.5,213,78.7,144,135,107,255,102,43.3
"CCCS(=O)(=O)Nc1ccc(F)c(C(=O)c2c[nH]c3ncc(Cl)cc23)c1F + CC(=O)c1c(C)c2cnc(Nc3ccc(N4CCNCC4)cn3)nc2n(C2CCCC2)c1=O [palbociclib] (first compound 0.08 µM, partner dose 0.04 µM)",78.2,77.1,59.3,225,252,23.4,59.2,317,101,81.7,102,74.1,156,58.5
"CN1CCN(c2ccc3nc(-c4c(N)c5c(F)cccc5[nH]c4=O)[nH]c3c2)CC1 [Dovitinib] + CNC(=O)c1cc(Oc2ccc(NC(=O)Nc3ccc(Cl)c(C(F)(F)F)c3)cc2)ccn1 [sorafenib] (first compound 0.1 µM, partner dose 0.4 µM)",62.4,134,33.1,94.8,93.9,56.8,305,143,70.8,74.8,125,93.7,88.4,179
"O=C(O)c1ccc2c(c1)nc(Nc1cccc(Cl)c1)c1ccncc12 + Nc1nc(F)nc2c1ncn2[C@@H]1O[C@H](CO)[C@@H](O)[C@@H]1O [fludarabine] (first compound 0.4 µM, partner dose 0.2 µM)",152,641,129,104,119,260,2050,81.9,164,250,88.8,303,78.3,118
"Nc1nc(F)nc2c1ncn2[C@@H]1O[C@H](CO)[C@@H](O)[C@@H]1O [fludarabine] + Nc1ncn([C@H]2C[C@H](O)[C@@H](CO)O2)c(=O)n1 [decitabine] (first compound 0.2 µM, partner dose 0.1 µM)",70.9,1390,147,125,263,701,1490,250,256,84.4,90.3,276,99.8,762
"Nc1ncn([C@H]2C[C@H](O)[C@@H](CO)O2)c(=O)n1 [decitabine] + OCc1c[nH]c2ccccc12 [Indole-3-carbinol] (first compound 0.1 µM, partner dose 0.8 µM)",47.9,425,76.2,198,47.1,105,94.9,329,152,465,91.9,60.9,109,132
"O=C(O)[C@@H]1[O][Sb](=[O])([O][Sb]2(=[O])[O][C@H]([C@H](O)CO)[C@H](O)[C@H](C(=O)O)[O]2)[O][C@H]([C@H](O)CO)[C@@H]1O (stereo not given in full) [stibogluconate] + Cn1c(Nc2ccc(C(F)(F)F)cc2)nc2cc(Oc3ccnc(-c4ncc(C(F)(F)F)[nH]4)c3)ccc21 [CHIR265] (first compound 2 µM, partner dose 0.08 µM)",67,1230,53.3,125,105,67.9,149,123,286,632,119,176,100,99.5
"C[C@@H](Oc1cc(-c2cnn(C3CCNCC3)c2)cnc1N)c1c(Cl)ccc(F)c1Cl [Crizotinib] + C[C@]1(c2nc3c(C(N)=O)cccc3[nH]2)CCCN1 [Veliparib] (first compound 0.2 µM, partner dose 1.4 µM)",64.8,61.2,166,184,89.5,118,23.5,52.5,41,100,108,90.9,84.4,39.7
"CS(=O)(=O)CCNCc1ccc(-c2ccc3ncnc(Nc4ccc(OCc5cccc(F)c5)c(Cl)c4)c3c2)o1 [lapatinib] + COc1ccc(Cl)c(Nc2nc3ccccc3nc2NS(=O)(=O)c2cccc(NC(=O)C(C)(C)N)c2)c1 [XL147] (first compound 0.8 µM, partner dose 0.8 µM)",123,128,110,224,78.9,72.3,68.7,239,116,1700,111,36.7,84.6,45.9
"CC(C)C[C@H](NC(=O)[C@H](Cc1ccccc1)NC(=O)c1cnccn1)B(O)O [Bortezomib] + C=C(c1ccc(C(=O)O)cc1)c1cc2c(cc1C)C(C)(C)CCC2(C)C [Bexarotene] (first compound 0.001 µM, partner dose 2 µM)",280,124,428,209,55.5,65.9,68.8,241,89.1,727,168,78.5,780,70.5
"Nc1nc(F)nc2c1ncn2[C@@H]1O[C@H](CO)[C@@H](O)[C@@H]1O [fludarabine] + C#Cc1cccc(Nc2ncnc3cc(OCCOC)c(OCCOC)cc23)c1 [erlotinib] (first compound 0.2 µM, partner dose 0.8 µM)",75.8,680,51,54.4,198,450,1610,99.3,76.7,42.5,103,2080,78.6,284
"CC(C)C[C@H](NC(=O)[C@H](Cc1ccccc1)NC(=O)c1cnccn1)B(O)O [Bortezomib] + Cc1nc(Nc2ncc(C(=O)Nc3c(C)cccc3Cl)s2)cc(N2CCN(CCO)CC2)n1 [dasatanib] (first compound 0.001 µM, partner dose 0.004 µM)",403,61.5,50.1,72.7,100,115,134,96.4,87.6,587,464,28.5,597,362
"CS(=O)(=O)CCNCc1ccc(-c2ccc3ncnc(Nc4ccc(OCc5cccc(F)c5)c(Cl)c4)c3c2)o1 [lapatinib] + Nc1ccn([C@@H]2O[C@H](CO)[C@@H](O)C2(F)F)c(=O)n1 [gemcitabine] (first compound 0.8 µM, partner dose 0.0004 µM)",82.4,107,158,123,40.4,76.3,110,116,56,63.9,104,74.8,88.6,185
"C=C(c1ccc(C(=O)O)cc1)c1cc2c(cc1C)C(C)(C)CCC2(C)C [Bexarotene] + C[C@]1(c2nc3c(C(N)=O)cccc3[nH]2)CCCN1 [Veliparib] (first compound 2 µM, partner dose 1.4 µM)",121,60.3,59,112,87.6,186,39,54.1,147,83.8,110,84.8,102,150

# Some entries already given, reduced to cleaved PARP positive nuclei fraction (MeWo) [%] and cleaved PARP positive nuclei fraction (WM1745) [%].
SMILES,cleaved PARP positive nuclei fraction (MeWo) [%],cleaved PARP positive nuclei fraction (WM1745) [%]
"Nc1ncn([C@H]2C[C@H](O)[C@@H](CO)O2)c(=O)n1 [decitabine] + C=CCNC1=C2C[C@@H](C)C[C@H](OC)[C@H](O)[C@@H](C)/C=C(\C)[C@H](OC(N)=O)[C@@H](OC)/C=C\C=C(/C)C(=O)NC(=CC1=O)C2=O [Tanespimycin] (first compound 0.1 µM, partner dose 0.002 µM)",577,104
"C=C(c1ccc(C(=O)O)cc1)c1cc2c(cc1C)C(C)(C)CCC2(C)C [Bexarotene] + Cc1nc(Nc2ncc(C(=O)Nc3c(C)cccc3Cl)s2)cc(N2CCN(CCO)CC2)n1 [dasatanib] (first compound 2 µM, partner dose 0.004 µM)",111,132
